Values from PubChem BioAssay AID504774 (Drosophila RNAi Screening Center, 2011).
Purpose: 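Fly genes whose loss alters survival after alkylation damage to DNA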 (primary screen). System: Drosophila Kc167 cells. Reagents: long dsRNA against Drosophila genes, about 0.25 µg dsRNA per well. Time to read-out: about 6 days: 3 days knock-down, then 3 days with or without MMS. Treatment: methyl methanesulphonate 0.004% (w/v) for 3 days after knock-down. Measurement: 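ATP-dependent luminescence as a measure of live cells in MMS-exposed wells, quantile normalised within each plate, with replicate values also given as a mean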. Reading the numbers: mean viability with MMS: higher = more surviving cells after MMS.
The screen tested about 23,000 reagents; this is a random part of those that have a named target and a result. 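Values are quantile-normalised luminescence on an arbitrary scale; higher means more cells surviving MMS.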 Not all columns of the deposit are shown.

What did the screen give for Lkb1 [DRSC16481]?
mean viability with MMS: 3.48e6

Which result is listed for zip [DRSC04725]?
mean viability with MMS: 3.61e6

How did the screen score zip [DRSC22489]?
mean viability with MMS: 3.58e6

With mthl8 [DRSC08211], what does the deposit list?
mean viability with MMS: 3.66e6

How did the screen score mthl8 [DRSC08311]?
mean viability with MMS: 3.61e6

With CG11050 [DRSC02125], how do the results read?
mean viability with MMS: 3.04e6

For Ac13E [DRSC19325], how do the results read?
mean viability with MMS: 3.67e6

What did the screen give for Stt3B [DRSC16781]?
mean viability with MMS: 3.50e6

For Srrm1 [DRSC09835], what was measured?
mean viability with MMS: 3.50e6

With Pde11 [DRSC02028], what does the deposit list?
mean viability with MMS: 1.79e6

For Pde11 [DRSC02460], how do the results read?
mean viability with MMS: 3.69e6

For CG2147 [DRSC18211], how do the results read?
mean viability with MMS: 3.64e6

How did the screen score CCT3 [DRSC16602]?
mean viability with MMS: 3.41e6

Looked up above.
Pde11 [DRSC02028], mean viability with MMS → 1.79e6
CG11050 [DRSC02125], mean viability with MMS = 3.04e6

Next reagents:
What is on record for CG7653 [DRSC01886]?
mean viability with MMS: 3.51e6

Which result is listed for CG5194 [DRSC10492]?
mean viability with MMS: 3.63e6

What did the screen give for Obp51a [DRSC22412]?
mean viability with MMS: 3.71e6

What did the screen give for Nup133 [DRSC16150]?
mean viability with MMS: 3.31e6

What is on record for CG13102 [DRSC02202]?
mean viability with MMS: 3.80e6

For p115 [DRSC18813], what was measured?
mean viability with MMS: 3.60e6

How did the screen score Cpr76Bb [DRSC11061]?
mean viability with MMS: 3.53e6

What did the screen give for Cpr76Bb [DRSC22870]?
mean viability with MMS: 3.22e6

What is on record for pns [DRSC08598]?
mean viability with MMS: 3.56e6

For CysRS-m [DRSC07129], what was measured?
mean viability with MMS: 3.69e6

With Vps15 [DRSC16553], what does the deposit list?
mean viability with MMS: 3.78e6

What is on record for ReepA [DRSC04572]?
mean viability with MMS: 3.76e6

For ReepA [DRSC22475], what does the deposit list?
mean viability with MMS: 3.67e6

With pdm3 [DRSC06076], what was measured?
mean viability with MMS: 3.67e6

With pdm3 [DRSC06490], what does the deposit list?
mean viability with MMS: 3.58e6

How did the screen score pdm3 [DRSC22326]?
mean viability with MMS: 2.94e6

For pdm3 [DRSC23181], how do the results read?
mean viability with MMS: 3.60e6

What did the screen give for CG17129 [DRSC08508]?
mean viability with MMS: 3.30e6

What is on record for Tret1-1 [DRSC07046]?
mean viability with MMS: 3.56e6

What is on record for Tret1-1 [DRSC07048]?
mean viability with MMS: 3.37e6

How did the screen score NAT1 [DRSC06854]?
mean viability with MMS: 3.34e6

With VhaM9.7-b [DRSC11841], what does the deposit list?
mean viability with MMS: 3.49e6
